This assay concerns the target PDE-5 (UniProt O76074). Kind of assay: In vitro PDE inhibitory activity against PDE5 (batch method or scintillation proximity assay). The assay is classed as biochemical, human. As to conditions: representative compounds.

Structures were worked out from names or drawings and are uncertain.

`CCOCCn1nc(C(=O)NS(C)(=O)=O)c2nc(N(C)C(C)C)nc(Nc3cc(C)ncn3)c21` returned an IC50 of 0.608 nM. This counts as sub-nanomolar.
Compound `CCOCCn1nc(C(=O)O)c2nc(N(C)C(C)C)nc(Nc3ccc(C)cn3)c21` came in with an IC50 of 7.19 nM.
`CCN(C)c1nc(Nc2cccc(C)c2)c2c(n1)c(C(=O)O)nn2CCOCC(F)(F)F` returned an IC50 of 0.414 nM. This IC50 is about 17-fold lower than that of the compound before.
To `COCCn1nc(C(=O)O)c2nc(N(C)C)nc(Nc3cc(C)ccn3)c21` belongs 8.97 nM.

The values above are taken from US7572799B2, “Pyrazolo[4,3-d]pyrimidines as Phosphodiesterase Inhibitors” (Pfizer Inc, priority 2003, dated 2009).
